# Results reported in patent US7041276B2, “Methods of screening agents for activity using teleosts” (priority 1998, dated 2006).
# At least one compound was matched to its structure with a doubt left.
# Test system: zebrafish embryos
# Experiment: Induction of cell death in zebrafish embryos by retinoic acid
# Assay type: in vivo
# Settings: 1 μM at 12 to 14 hours
smiles,measurement,value
CC1=C(/C=C/C(C)=C/C=C/C(C)=C/C(=O)O)C(C)(C)CCC1 [retinoic acid],induced cell death (phase image),Apoptosis occurred in the hindbrain
